This note sets out measurements from article doi:10.64898/2025.12.11.693769.

This assay deals with DacA-luciN (Streptococcus mutans). As to the kind of experiment: split reporter.

These are yes or no findings as the source states them, for the method shown. In cells and extracts the contact can be indirect. Binding calls can cover weak binding; strength is not graded here. Sequences can lack the tags named with a protein.

B1: GapC-luciC (enzyme, UniProt Q8DVV3 1-337)
chain: MVVKVGINGFGRIGRLAFRRIQNVEGVEVTRINDLTDPNMLAHLLKYDSTQGRFDGNVEVKEGGFEVNGKFVKVSAERDPEQIDWAADGVEIVLEATGFFASKAAAEKHLHANGGAKKVVITAPGGNDIKTIVFNTNHDVLDGTETVISGASCTTNCLAPMAKALHDNFSIKEGLMTTIHAYTGDQMVLDGPHRKGDLRRARAAAANIVPNSTGAAKAIGLVIPELNGKLDGAAQRVPVPTGSVTELVAVLDKKVTVDEVNAAMKAAANESYGYTEDPIVSSDIVGMSFGSLFDATQTKVLDVDGKQLVKVVSWYDNEMSYTSQLVRTLEYFAKIAK
In the case of B1, the binding result is “binds”.

B2: 723-luciC (protein, UniProt Q8DV01 1-893)
chain: MFKKQKRDSFYVQDEKTVLSGLESSKKGLTSTQAKQRLADYGYNELEEDEKRTILAKFIDQFKDLMIIILLVAAALSVITEGMGGLTDAIIILVVVVLNAAFGVYQEGQAEAAIEALKSMSSPHARVRRDGHVTEIDSKELVPGDVVLLEAGDVVPADMRLLEAASLKIEEAALTGESVPVEKSVTVAIASDAGIGDRLNMAYQNSNVTYGRGMGVVTNTGMYTEVGHIAGMLANADETDTPLKQSLDNLSKVLTYVIIIIAIITCLVGIFVRHEEPLEGLMVAVALAVAAIPEGLPAIVTVVLSLGTKTLAKRQSIVRKLPAVETLGSTEIIASDKTGTLTMNQMTVEKVYYNGRLVDANDDIDVNNMALRVMNFANDSKVDANGKLIGDPTETALVQYGFDHNFDIREVLKAELRVAELPFDSDRKLMSTIHKLDGEKYLIAVKGAPDQLLKRITQIEIDGSIRPITEDDKKAILDMNKSLAKQALRVLMIAYKYESEIPKLETAVVENDLIFAGLVGMIDPERPEAAEAVHVAKEAGIRPIMITGDHQDTAEAIAKRLGIIDDDGIDHVFTGAELNELSDEEFQKVFKQYSVYARVSPEHKVRIVKAWQNDGKIVAMTGDGVNDAPSLKTADIGIGMGITGTEVSKGASDMVLADDNFATIIVAVEEGRKVFSNIQKSIQYLLSANMAEVFTIFFATLFGWDVLQPVHLLWINLVTDTLPAIALGVEPAEPGVMTHKPRGRKSSFFSGGVMGAIIYQGILQTLLVLGVYGWAVFFPEHATRTEIHADALTMAFATLGLIQLVHAYNVKSVYQSIFKVGFFKNKTFNWALPTALIIMLATIVIPGFNRFFHVSHLSVTQWCVVVGGSLAMFVIVEIVKAIQRVLGQDQKAI
For B2, the binding entry is “binds”.
